From PubChem BioAssay AID1259354 (Paczesny and Yang Labs, IUPUI and University of Michigan, 2018)
Several values for one entry are separate records, joined by “and”; a condition that tells them apart may be missing. Equal values may be shown once. The whole screen tested about 78,000 compounds, of which about 1,800 (2.3%) were called active. This list was built around the results that the source calls inconclusive (neither active nor inactive); the mix of calls is not that of the screen. Rule as the data show it: active = inhibition above about 30%; inconclusive = mostly about 10% to 28%; inactive = weaker than that.

Amino acid sequences for entries named in this document (tags omitted). A change or cut given only in a name is not applied to a line headed by its entry.
UniProt Q01638: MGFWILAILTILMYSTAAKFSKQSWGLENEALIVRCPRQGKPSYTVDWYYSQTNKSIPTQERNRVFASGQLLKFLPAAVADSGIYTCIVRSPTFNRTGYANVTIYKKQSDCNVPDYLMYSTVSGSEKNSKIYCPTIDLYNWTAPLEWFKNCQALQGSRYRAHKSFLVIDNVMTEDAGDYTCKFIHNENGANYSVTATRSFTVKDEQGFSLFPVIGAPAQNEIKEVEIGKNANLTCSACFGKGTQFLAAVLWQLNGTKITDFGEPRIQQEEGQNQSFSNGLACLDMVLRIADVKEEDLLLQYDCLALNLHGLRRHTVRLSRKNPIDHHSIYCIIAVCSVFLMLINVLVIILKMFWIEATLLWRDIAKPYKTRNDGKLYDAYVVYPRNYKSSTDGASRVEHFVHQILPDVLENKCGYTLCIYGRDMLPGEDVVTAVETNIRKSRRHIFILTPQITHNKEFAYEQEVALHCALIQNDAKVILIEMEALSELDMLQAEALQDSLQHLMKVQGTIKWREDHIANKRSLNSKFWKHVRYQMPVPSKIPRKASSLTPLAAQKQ

Target: Interleukin-1 receptor-like 1 (Homo sapiens) (UniProt Q01638)
Assay: blocks human ST2 binding to IL-33, primary screen, biochemical, AlphaLISA (AID 1259354)
Details: AlphaLISA ST2-Fc/biotin-IL-33 interaction, 1 h; at 17 µM, hits give high values

| Compound | inhibition |
| --- | --- |
| Nc1nnc(CCS(=O)(=O)c2ccc(Br)cc2)s1 | inconclusive: 10% |
| CSc1nc(N)nc(SCC(=O)c2ccc(F)cc2)c1C#N | inactive |
| Cc1ccc(N=Cc2nc(-c3ccccc3F)oc2O)c([N+](=O)[O-])c1 | active: 34% |
| COc1ccc(-c2ccccc2NC(=O)C2CCCN(Cc3cnc(SC)nc3)C2)cc1 (stereo not given) | inconclusive: 10% |
| Cn1cncc1-c1nnc([C@H]2CCN(Cc3cccnc3)C2)o1 | inactive |
| O=C1S/C(=C\c2ccc(O)cc2)C(=O)N1c1cccc(O)c1 | inactive |
| Cc1ccc(Br)cc1NCN1C(=O)c2ccc([N+](=O)[O-])cc2C1=O | inconclusive: 10% |
| CCn1ccnc1Cn1ccnc1-c1ccccc1-c1ccco1 | inconclusive: 11% |
| Nc1c(C(=O)Nc2ccccc2)cnn1-c1ccccc1 | inconclusive: 12% |
| CC(C)Cn1cncc1CNC(=O)c1ccon1 | inconclusive: 11% |
| COc1ccc(Nc2c3c(nc4ccccc24)CCC3)c(OC)c1 | inconclusive: 15% |
| Cc1cccc(NS(=O)(=O)c2c(C)noc2C)c1C | inactive |
| CC1CCN(c2ncnc3ccc(Br)cc23)CC1 | inactive |
| COc1ccc(-n2ccnc2-c2nccn2CCN(C)C)cc1 | inactive |
| CCc1c(C)nn(Cc2nc(CC3CCN(C)CC3)no2)c1C | inactive |
| CC(C)OCCCNC(=O)c1cc(-c2ccc(Br)s2)nc2ccccc12 | inconclusive: 17% and inconclusive: 10% |
| O=C1NC(=O)/C(=C\c2cccc(Cl)c2Cl)S1 | inconclusive: 14% |
| O=C1CSC(c2ccc([N+](=O)[O-])cc2)N1c1cc(Cl)ccc1O (stereo not given) | inconclusive: 11% |
| Cc1cnn(-c2nc(-c3cccs3)cc(C(F)(F)F)n2)c1 | inconclusive: 18% |
| C=Cc1ccc(O[C@@H]2O[C@H](CO[C@@H]3O[C@@H](C)[C@H](O)[C@@H](O)[C@H]3O)[C@@H](O)[C@H](O)[C@H]2O)cc1 | inconclusive: 12% |
| CCOC(=O)C1(CCc2ccccc2)CCCN(C(=O)c2ccnn2C)C1 (stereo not given) | inconclusive: 10% |
| CN(Cc1cn(C)nc1-c1ccccc1)C1CCCN(Cc2ccccc2F)C1 (stereo not given) | inactive |
| CC(C)NC(=O)CCC1=NS(=O)(=O)c2ccccc2N1 | inactive |
| Cc1ccc(CSC2=NCCN2C(=O)c2cccc(C)c2)cc1 | inactive |

As entered above.
Value of `Cc1ccc(CSC2=NCCN2C(=O)c2cccc(C)c2)cc1` under inhibition: inactive
Value of `Cc1ccc(Br)cc1NCN1C(=O)c2ccc([N+](=O)[O-])cc2C1=O` under inhibition: inconclusive: 10%
Value of `C=Cc1ccc(O[C@@H]2O[C@H](CO[C@@H]3O[C@@H](C)[C@H](O)[C@@H](O)[C@H]3O)[C@@H](O)[C@H](O)[C@H]2O)cc1` under inhibition: inconclusive: 12%
Value of `CC1CCN(c2ncnc3ccc(Br)cc23)CC1` under inhibition: inactive
Value of `COc1ccc(Nc2c3c(nc4ccccc24)CCC3)c(OC)c1` under inhibition: inconclusive: 15%
Value of `CN(Cc1cn(C)nc1-c1ccccc1)C1CCCN(Cc2ccccc2F)C1` (stereo not given) under inhibition: inactive

(next part)

| Compound | inhibition |
| --- | --- |
| CC(C)c1cc(NC2CC(=O)N(CC(C)(C)C)C2)nc(C(F)(F)F)n1 (stereo not given) | active: 31% |
| COc1cc(CNC(=O)c2ccccc2SCc2ccccc2)cc(OC)c1OC | inconclusive: 15% |
| CO[C@H]1[C@H](NC(=O)C(C)C)c2ccccc2C12CCN(C(=O)COc1ccc(Cl)cc1)CC2 | inconclusive: 10% |
| CCN(CCc1nc2ccc(C)cc2[nH]1)C(=O)c1ccc2ncccc2c1 | inconclusive: 14% |
| Cc1cccc(NC(=O)CCC2CCN(C(=O)CN3CCOC3=O)CC2)c1 | inconclusive: 17% |
| CCOc1ccc(C(=O)NCc2nc3cccnc3n2Cc2ccc(OC)cc2)cc1OCC | inconclusive: 18% |
| CCOCCCNC(=O)C1(O)c2cc(Br)ccc2NC(=O)N1c1ccc(C)c(C)c1 (stereo not given) | inconclusive: 10% |
| Cc1ccc(O)c(N=Cc2cc3c(cc2[N+](=O)[O-])OCO3)c1 | inconclusive: 16% |
| COCCCNC(=O)c1nn(-c2ccc(OC)c(Cl)c2)c(=O)c2c1c1ccccc1n2C | inactive |
| C=CCSc1nnc2n(C)c(=O)c3c(n12)-c1ccccc1CC31CCCCC1 | active: 38% |
| O=C1CC(c2cccc([N+](=O)[O-])c2)CC2=C1C(c1ccc(Cl)cc1)Nc1ccccc1N2 (stereo not given) | inactive |
| COc1ccc(Cl)cc1NC(=O)C(=O)O | inconclusive: 10% |
| Cc1[nH]c2ccc(CNC(=O)CCc3nc4cccnc4n3C)cc2c1C | inactive |
| CCC(C)NC(=O)CSc1nc2nc(C)c(Cc3cccc(C)c3)c(C)n2n1 (stereo not given) | inactive |
| Cc1nnc(NC(=O)c2ccc(C(C)C)cc2)s1 | active: 92% |
| CC1CCN([C@@H]2[C@H](O)[C@H](CO)O[C@@H]2CNC(=O)Nc2cccc(Cl)c2)CC1 | inconclusive: 13% |
| COc1ccc([N+](=O)[O-])cc1NC(=O)c1ccc(Cl)cc1Cl | inconclusive: 10% |
| O=C(Nc1cccc(Cl)c1)C(O)c1ccccc1 (stereo not given) | inactive |
| CCOc1ccc(-c2cc(OCC)c3c(C)oc(C)c3c(=O)c2)cc1 | inconclusive: 12% |
| CC1(C)CC(=O)C2=C(C1)c1c(ccc3ncccc13)NC2c1ccccc1F (stereo not given) | inactive |
| CC(=O)c1c(F)c(F)c(Oc2ccc(Br)cc2)c(F)c1N1CCOCC1 | inactive |
| CO[C@H]1[C@H](NC(=O)c2ccccn2)c2ccccc2C12CCN(C(=O)Cc1ccccc1F)CC2 | inconclusive: 13% |
| O=C(N[C@@H]1CNCCC[C@H]1OC(=O)c1cc(O)c(C(=O)c2c(O)cccc2C(=O)O)c(O)c1)c1ccc(O)cc1 | inconclusive: 16% |
| O=C(C1CCCN1)N(Cc1ccccc1)Cc1nccs1 (stereo not given) | inactive |

| Compound | inhibition |
| --- | --- |
| O=S(=O)(Nc1ccccn1)c1ccc(N=Cc2cccc(Cl)c2)cc1 | inactive |
| Nc1c(Cl)cc(N2C(=O)c3ccc(C(=O)O)cc3C2=O)cc1Br | inactive |
| COc1ccc(C(=O)Nc2sc3c(c2C(N)=O)CCCC3)cc1[N+](=O)[O-] | active: 31% |
| Cc1ccc(NC(=O)c2cc(C3CC3)on2)cc1C | inactive |
| O=C(CN1CCC(c2ccccc2)CC1)N1CC(c2cccnc2)C1 | inconclusive: 20% |
| O=C(Cn1cnc2c(cnn2-c2ccc(Cl)cc2)c1=O)Nc1ccccc1F | inconclusive: 14% |
| COc1ccc(-c2cc(C(=O)NCc3ccco3)c3ccccc3n2)cc1OC | inconclusive: 19% |
| CCOc1ccc(C2Nc3cccc4cccc(c34)N2)cc1 | active: 36% |
| Cc1nnc(SC(=O)Cn2c3ccccc3c3ccccc32)s1 | inconclusive: 24% |
| CCOc1cccc2cc(C(=O)NC(C)=O)c(=Nc3ccc(Cl)cc3Cl)oc12 | inconclusive: 19% |
| CC(C)Cc1ccc(S(=O)(=O)Nc2cccc(Cl)c2)cc1 | inactive |
| O=C(O)C1CC2(CCNCC2)CN1Cc1ccccc1OCCO (stereo not given) | inactive |
| Cc1nc(CNC(=O)c2coc(Cn3cnc4ccccc43)n2)cs1 | inconclusive: 17% |
| COc1ccc(C2C=C(c3ccccc3)Nc3ncnn32)cc1 (stereo not given) | inconclusive: 19% |
| O=C(Nc1nc(-c2ccc(F)cc2)cs1)c1ccc(S(=O)(=O)N2CCCCC2)cc1 | inactive |
| CCOc1cccc(OCCOCCN2CCN(C)CC2)c1 | inactive |
| Cc1ccccc1NCC(=O)Nc1c(C)cccc1C | inconclusive: 17% |
| C=CCc1cc(OC)ccc1OCC(O)CN1CCN(c2ccccc2F)CC1 (stereo not given) | inconclusive: 19% |
| CC1=C(C(=O)Nc2cccnc2)C(c2ccccn2)n2nc(SCc3ccccc3)nc2N1 (stereo not given) | inconclusive: 17% |
| OC[C@H]1O[C@@H](n2cnc3c(NCCc4ccccc4)ncnc32)[C@H](O)[C@@H]1O | inactive |
| Cn1cc(C(=O)NCCCN2CCOCC2)c2c3ccccc3n(C)c2c1=O | inactive |
| O=[N+]([O-])c1cccc(CN2CCc3ccccc3C2)c1 | inconclusive: 22% |
| CCOc1cc(CN2CCc3nnc(CCc4ccccc4)n3CC2)ccc1O | inconclusive: 12% |
| CCNC(=O)N[C@H]1[C@H](O)[C@@H](Oc2ccccc2)[C@@H]2OC[C@H]1O2 | inconclusive: 14% |

| Compound | inhibition |
| --- | --- |
| Cc1nc2c(C(=O)N3CCOCC3)c[nH]n2c(=O)c1Cc1ccc(Cl)cc1 | inactive |
| O=C1CN(S(=O)(=O)c2ccc(F)cc2)C(c2ccccc2)c2cc(Br)ccc2N1 (stereo not given) | inconclusive: 17% |
| CC(=O)Nc1ccc(CN2CCCCCC2)cc1 | inconclusive: 17% |
| Cc1cccc(-c2cc(N3CCN(S(=O)(=O)c4ccc(F)c(Cl)c4)CC3)ncn2)c1 | inactive |
| CC(C)N1CCC[C@H]1c1nc(-c2ccc(-n3ccnc3)nc2)no1 | active: 35% |
| CN(C)c1ccc(CNc2ccc3c(c2)ncn3C(C)(C)C)cc1 | active: 42% and active: 33% |
| COc1cc2c(cc1OC)C(c1ccc(OCc3ccccc3)cc1)CC(=O)N2 (stereo not given) | inactive |
| Cc1cc(C)nc(SCc2nc3ccc(Cl)cn3c2Cl)n1 | inconclusive: 14% |
| CCC(C)n1c(Cc2ccc(O)cc2)n[nH]c1=O (stereo not given) | active: 33% |
| CC(=O)Nc1ccc(Cl)c(C(=O)NCCC2=CC[C@H]3C[C@@H]2C3(C)C)c1 | inactive |
| Cn1c(NC(=O)c2ccc(F)cc2)nc2ccccc21 | inconclusive: 12% |
| COC(=O)CNC(=O)c1cn(C)c(=O)c2cc(OC)c(OC)cc12 | inconclusive: 11% |
| Cc1c(N=Cc2cc([N+](=O)[O-])ccc2N(C)C2CCCCC2)c(=O)n(-c2ccccc2)n1C | active: 47% |
| Cc1cc(Cl)c2oc(C(=O)NCC(C)(C)N3CCOCC3)c(C)c2c1 | inconclusive: 10% |
| Brc1ccc2c(c1)C1CC(c3cccs3)=NN1C1(CCCC1)O2 (stereo not given) | inconclusive: 19% and inconclusive: 13% |
| CC1=C(C(=O)N2CCc3ccccc3C2)C(c2c(C)noc2C)NC(=O)N1 (stereo not given) | inconclusive: 15% |
| Cc1cc(C)nc(Sc2nc([N+](=O)[O-])nn2C)n1 | inconclusive: 17% |
| COc1ccccc1NC(=O)C1=C(C)Nc2ncnn2C1c1cccc(Br)c1 (stereo not given) | inconclusive: 11% |
| N#Cc1c(NC(=O)c2cccc(Cl)c2)sc2c1CCCC2 | inconclusive: 15% |
| C=C(C)COc1ccc(C(=O)N(CC2CCC(=O)N2)C(C)C)cc1 (stereo not given) | inconclusive: 22% |
| Cc1ccc(N2CCCS2(=O)=O)cc1NC(=O)c1cccc(Br)c1 | inconclusive: 12% |
| Cc1cnn(-c2nc(-c3ccco3)cc(C(F)(F)F)n2)c1 | inactive |
| Cc1ccc2c3c(c(N)c(=O)[nH]c13)-c1ccccc1C2=O | active: 51% |
